## Library screening results

Mtb growth Cornell: 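Whole-cell assay for inhibitors of Mycobacterium tuberculosis growth, labelled Cornell in the record; the read-out is not stated. The concentration is filed as 10 mM, unlikely as a test dose, so the dose is not known. Higher means stronger inhibition (inferred from two other growth screens of the library). Size under these conditions: about 53,000 compounds, about 900 of them at 50% or above in at least one test.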
Mtb heat-shock: 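Assay on Mycobacterium tuberculosis, filed only as a heat shock assay from Cornell; the read-out is not stated. The concentration is filed as 10 mM, unlikely as a test dose, so the dose is not known. The record gives no direction; compounds that gave an IC50 in retests scored well above the rest, so higher reads as stronger inhibition. Of about 69,000 compounds tested this way, about 930 (1.4%) reached 50% or more in at least one test.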

Values are the deposited “Percent Effect”, in %.
The record does not define 0% and 100%; most values in the screen are far below 50% and negative numbers occur (in some assays of this library far below -100).
This is an unselected part of the compounds tested.
A dash means the value is not listed here; it may have been measured.

| # | structure | Mtb growth Cornell | Mtb heat-shock |
|---|---|---|---|
| 1 | `CS(=O)(=O)NC(=O)c1ccn(-c2ccc(Cl)c(Cl)c2)n1` | - | -0.6529 |
| 2 | `CCS(=O)(=O)N1CCC2(COCc3cnc(N4CCOCC4)nc32)C1` (configuration not stated) | 12.07 | -9.358 |
| 3 | `COCCN(CCOC)C(=O)c1cnn(C)c1-n1c(C)ccc1C` | -8.309 | 16.56 |
| 4 | `CC(C)c1nnc2n1CCN(Cc1nc(-c3ccoc3)no1)C2` | - | -3.433 |
| 5 | `Cc1ccc(NC(=O)[C@H]2C[C@H](C(=O)O)CN(CC(C)C)C2)cn1` | - | -23.89 |
| 6 | `COCCNc1c(-c2ccc(Cl)cc2)c(=O)c1=O` | - | -13.35 |
| 7 | `Cc1nc(C)n(CC2CN(Cc3cccc(C#N)c3)CCO2)n1` (configuration not stated) | 15.31 | 4.642 |
| 8 | `O=C(Cn1cccnc1=O)NCC1Cc2ccccc2O1` (configuration not stated) | - | -3.992 |
| 9 | `O=C(C1CCS(=O)(=O)CC1)N1CCC(c2ccc(F)cc2)C1` (configuration not stated) | -7.345 | -12.91 |
| 10 | `CCC1CN(C(=O)Nc2cnc3c(cnn3C(C)C)c2)CCO1` (configuration not stated) | 16.43 | 14.99 |
| 11 | `CS(=O)(=O)Cc1ccc(C(=O)N2CCCC(n3cncn3)C2)o1` (configuration not stated) | -26.87 | 5.027 |
| 12 | `CC(C)(C)CC(=O)N1CSCC1C(=O)NCc1cccc(C#N)c1` (configuration not stated) | -29.85 | 5.266 |
| 13 | `CS(=O)(=O)N1CCC(Nc2ccc(C#N)c(C(F)(F)F)c2)CC1` | 26.46 | -3.037 |
| 14 | `O=C(NCc1ccco1)c1cccc(C(=O)NCc2ccco2)n1` | 24.01 | -5.766 |
| 15 | `CCN1CCC(Cn2ccc3ccc(C(=O)OC)cc3c2=O)C1` (configuration not stated) | 8.433 | -7.273 |
| 16 | `COCCN1CC[C@H](O)[C@@H]1Cc1ccccc1.O=C(O)C(F)(F)F` | - | 25.13 |
| 17 | `CCc1noc(CN(C)C(=O)c2ccccc2-c2ncn[nH]2)n1` | -58.25 | 5.679 |
| 18 | `O=C(c1cnc(-c2cccs2)s1)N1CCCC(n2ccnc2)C1` (configuration not stated) | 6.926 | 16.45 |
| 19 | `CN(Cc1cn(-c2ccccc2)nn1)C1CCCN(c2cccnn2)C1` (configuration not stated) | - | -5.978 |
| 20 | `c1csc(CCNc2nc(-c3ccncc3)nc3c2CCNCC3)c1` | 35.37 | 10.45 |
| 21 | `COC(=O)c1cc2c(OC)c(OC)c(OC)cc2[nH]1` | 6.313 | -8.23 |
| 22 | `Cc1ccc(N2CCCC(N(C)Cc3nc(C)c(C)o3)C2)nn1` (configuration not stated) | 11.27 | 2.829 |
| 23 | `Cc1cccc(CNC(=O)CC2CCN(C(=O)C(C)C)CC2)n1` | -31.48 | -6.6 |
| 24 | `CCN(Cc1nc2c(cnn2C)c(=O)[nH]1)c1cccc(C)c1` | -15.55 | 5.384 |
| 25 | `COc1cc(CNC(C)Cn2cccn2)cc2c1OCO2.Cl` (configuration not stated) | - | 0.2197 |
| 26 | `COCCOc1ccc(S(=O)(=O)Nc2cccc(O)c2F)cc1C` | -3.124 | 12.14 |
| 27 | `COC1COC2(CCN(C(=O)c3ccccc3F)CC2)C1` (configuration not stated) | -5.912 | 17.85 |
| 28 | `Cl.O=c1c2sccc2nc2n1CCN(Cc1ccccc1C(F)(F)F)CC2` | 20.91 | 24 |
| 29 | `O=C(Cc1cccc(F)c1F)NS(=O)(=O)c1ccc(Cl)cc1F` | -8.938 | -11.18 |
| 30 | `CCc1cccc(OCC(=O)NC(C)c2nnc3n2CCC3)c1` (configuration not stated) | 9.182 | -9.075 |
| 31 | `CCNC(=O)N1CC2=CC(C)(C)COc3ccc(OC)c(c32)C1` | 44.64 | 1.054 |
| 32 | `CC(=O)Nc1ccc(CNc2cccc(OCCF)c2)cc1` | - | -9.952 |
| 33 | `COc1cc(N2CC3(CCN(S(=O)(=O)C4CC4)C3)C2)ncn1` | -10.48 | -2.647 |
| 34 | `O=C(NC1CC1)C1(Cc2cc(-c3ccc(F)cc3F)no2)CCOCC1` | 11.34 | 6.46 |
| 35 | `Cl.Cl.O=C(CN1CCN(CC(O)C2CC2)CC1)NCc1ccccc1` (configuration not stated) | - | -5.966 |
| 36 | `O=C(c1ccc2c(c1)CCO2)N1CCN(c2ncccn2)CC1` | -7.092 | -11.83 |

Some entries from above, unchanged:

structure,Mtb growth Cornell,Mtb heat-shock
CCc1cccc(OCC(=O)NC(C)c2nnc3n2CCC3)c1 (configuration not stated),9.182,-9.075
COc1cc(CNC(C)Cn2cccn2)cc2c1OCO2.Cl (configuration not stated),-,0.2197
CCN(Cc1nc2c(cnn2C)c(=O)[nH]1)c1cccc(C)c1,-15.55,5.384

Source: ChEMBL document CHEMBL3988442, “University of Dundee, Small-Polar-MMV Screening Library” (2021).